These are yes or no findings as the source states them, for the method shown. Binding calls can cover weak binding; strength is not graded here.
B1: Cel48F, major cellulosomal cellulase of R. cellulolyticum (endogenous) (enzyme, UniProt P37698 30-722)
chain: ASSPANKVYQDRFESMYSKIKDPANGYFSEQGIPYHSIETLMVEAPDYGHVTTSEAMSYYMWLEAMHGRFSGDFTGFDKSWSVTEQYLIPTEKDQPNTSMSRYDANKPATYAPEFQDPSKYPSPLDTSQPVGRDPINSQLTSAYGTSMLYGMHWILDVDNWYGFGARADGTSKPSYINTFQRGEQESTWETIPQPCWDEHKFGGQYGFLDLFTKDTGTPAKQFKYTNAPDADARAVQATYWADQWAKEQGKSVSTSVGKATKMGDYLRYSFFDKYFRKIGQPSQAGTGYDAAHYLLSWYYAWGGGIDSTWSWIIGSSHNHFGYQNPFAAWVLSTDANFKPKSSNGASDWAKSLDRQLEFYQWLQSAEGAIAGGATNSWNGRYEAVPSGTSTFYGMGYVENPVYADPGSNTWFGMQVWSMQRVAELYYKTGDARAKKLLDKWAKWINGEIKFNADGTFQIPSTIDWEGQPDTWNPTQGYTGNANLHVKVVNYGTDLGCASSLANTLTYYAAKSGDETSRQNAQKLLDAMWNNYSDSKGISTVEQRGDYHRFLDQEVFVPAGWTGKMPNGDVIKSGVKFIDIRSKYKQDPEWQTMVAALQAGQVPTQRLHRFWAQSEFAVANGVYAILFPDQGPEKLLGDVNGDETVDAIDLAILKKYLLNSSTTINTANADMNSDNAIDAIDYALLKKALLSIQ
B2: Cel9G, cellulosomal cellulase of R. cellulolyticum (endogenous) (enzyme, UniProt P37700 36-725)
chain: AGTYNYGEALQKSIMFYEFQRSGDLPADKRDNWRDDSGMKDGSDVGVDLTGGWYDAGDHVKFNLPMSYTSAMLAWSLYEDKDAYDKSGQTKYIMDGIKWANDYFIKCNPTPGVYYYQVGDGGKDHSWWGPAEVMQMERPSFKVDASKPGSAVCASTAASLASAAVVFKSSDPTYAEKCISHAKNLFDMADKAKSDAGYTAASGYYSSSSFYDDLSWAAVWLYLATNDSTYLDKAESYVPNWGKEQQTDIIAYKWGQCWDDVHYGAELLLAKLTNKQLYKDSIEMNLDFWTTGVNGTRVSYTPKGLAWLFQWGSLRHATTQAFLAGVYAEWEGCTPSKVSVYKDFLKSQIDYALGSTGRSFVVGYGVNPPQHPHHRTAHGSWTDQMTSPTYHRHTIYGALVGGPDNADGYTDEINNYVNNEIACDYNAGFTGALAKMYKHSGGDPIPNFKAIEKITNDEVIIKAGLNSTGPNYTEIKAVVYNQTGWPARVTDKISFKYFMDLSEIVAAGIDPLSLVTSSNYSEGKNTKVSGVLPWDVSNNVYYVNVDLTGENIYPGGQSACRREVQFRIAAPQGTTYWNPKNDFSYDGLPTTSTVNTVTNIPVYDNGVKVFGNEPAGGSENPDPEILYGDVNSDKNVDALDFAALKKYLLGGTSSIDVKAADTYKDGNIDAIDMATLKKYLLGTITQLPQG
B3: fluorescently labeled R. cellulolyticum cellulosomal cellulase Cel5A (enzyme, UniProt P17901 27-475)
chain: YDASLIPNLQIPQKNIPNNDGMNFVKGLRLGWNLGNTFDAFNGTNITNELDYETSWSGIKTTKQMIDAIKQKGFNTVRIPVSWHPHVSGSDYKISDVWMNRVQEVVNYCIDNKMYVILNTHHDVDKVKGYFPSSQYMASSKKYITSVWAQIAARFANYDEHLIFEGMNEPRLVGHANEWWPELTNSDVVDSINCINQLNQDFVNTVRATGGKNASRYLMCPGYVASPDGATNDYFRMPNDISGNNNKIIVSVHAYCPWNFAGLAMADGGTNAWNINDSKDQSEVTWFMDNIYNKYTSRGIPVIIGECGAVDKNNLKTRVEYMSYYVAQAKARGILCILWDNNNFSGTGELFGFFDRRSCQFKFPEIIDGMVKYAFEAKTDPDPVIVYGDYNNDGNVDALDFAGLKKYIMAADHAYVKNLDVNLDNEVNAFDLAILKKYLLGMVSKLPSN
modifications: labeled with Alexa Fluor 488 succinimidyl ester dye

Legend:
[1] = target: scaffoldin CipC of R. cellulolyticum (R. cellulolyticum (endogenous in R. cellulolyticum H10)); assay: SEC; cellulose-bound proteins of 6-day cultures eluted with distilled water, Superdex 200 10/300 GL in 20 mM Tris-HCl pH 7.8, 150 mM NaCl, 1 mM CaCl2; cellulosomal and free fractions analysed by SDS-PAGE and western blot (anti-His tag, anti-Cel48F, anti-Cel9G)
[2] = target: scaffoldin CipC of R. cellulolyticum (R. cellulolyticum (endogenous in R. cellulolyticum H10)); assay: far-Western, overlay or dot blot; size exclusion fractions boiled, SDS-PAGE, transfer on nitrocellulose, probed with Cel5A labeled with Alexa Fluor 488; only the binder purified

Row | Binder | binding [1] | binding [2]
1 | B1 | binds | 
2 | B2 | binds | 
3 | B3 |  | binds
